Measured values as given in publication PMC12040169 (PLOS Biology, 2025).
Where two headings read alike, the source gives them in different places. The list shows a part of the results.

Test system: T1, CTL2-GFP (C. trachomatis L2/434/Bu, GFP-expressing)
T1 construct: L2/434/Bu, GFP-expressing
Design: species or system HeLa; Intracellular C. trachomatis growth in HeLa cells, bulk GFP fluorescence relative to DMSO
Conditions: bulk GFP, single well, 28.5 h, 10 µM, inhibitor

`c1ccc2c(Sc3cnccn3)cccc2c1` [CBK085841] was tested, and the “% of control remaining” value was 101.885%.
For `CCCOCCN1CCN(C(=O)c2nn3cc(C)cnc3c2Cl)CC1` [CBK306690], the “% of control remaining” value was 124.875%.
`CC(C#CCN(C)C)N1C(=O)CCC1C` (stereo not drawn) [CBK008291G] was tested, and the “% of control remaining” value was 91.2477%.
With `CCCCCNC(=O)N1CCN(CCCC(c2ccc(F)cc2)c2ccc(F)cc2)CC1` [CBK024917C] the “% of control remaining” value was 121.747%.
With `Cc1cccnc1CN1CCC2(CCc3ccccc3C(=O)N2)C1` (stereo not drawn) [CBK284611] the “% of control remaining” value was 112.542%.
In the case of `Brc1cnn(-c2ccccc2)c1` [CBK027172], the “% of control remaining” value is reported as 145.474%.
With `O=C(CCCc1ccccc1)Nc1c(F)cc(F)cc1OC1CCNCC1` [CBK050222T] the “% of control remaining” value was 100%.
With `c1cncc(CN2CCC(Oc3cncc(OCC4COc5ccccc5O4)n3)C2)c1` (stereo not drawn) [CBK084365] the “% of control remaining” value was 109.824%.
For `Cc1ccc(C)c(C(=O)CCC(=O)Nc2cccnc2)c1` [CBK266902], the “% of control remaining” value was 214.978%.
With `Cc1cc2cc3n(c2nn1)N=C(Cl)CC3` [CBK019458] the “% of control remaining” value was 134.825%.
`CCn1cnc2cc(NC(=O)c3ccc(C)n(C)c3=O)ccc21` [CBK281402] was tested, and the “% of control remaining” value was 90.7237%.
For `CC(=O)N1CCc2c(sc(NC(=O)c3ccccc3C)c2C#N)C1` [CBK304681], the “% of control remaining” value was 92.4057%.
For `FC(F)(F)c1ccnc(SCCOc2ccccc2)n1` [CBK103721], the “% of control remaining” value was 97.7214%.
With `COc1ccc(/C(C)=N/NC(=N)SC2CC(=O)N(c3ccc(C(=O)O)cc3)C2=O)cc1F` (stereo not drawn) [CBK262805] the “% of control remaining” value was 95.9005%.
With `CN1CCC[C@H]1C(=O)N1CCC(Cn2cncn2)(C2CCCCC2)CC1` [CBK136818] the “% of control remaining” value was 118.049%.
`COc1cc(OC)c(CN2CC3(C)CC2CC(C)(C)C3)cc1Br` (stereo not drawn) [CBK307074] was tested, and the “% of control remaining” value was 145.858%.
In the case of `CC1Oc2ccc(NC(=O)C3CC4C=CC3C43CC3)cc2NC1=O` (stereo not drawn) [CBK281523], the “% of control remaining” value is reported as 116.735%.
For `Cc1ccc(S(=O)(=O)N2CCOCC2)cc1-c1cncc(-c2ccc(O)cc2)n1` [CBK123789], the “% of control remaining” value was 93.3062%.
`O=C(CC(C(=O)O)C1CCCO1)Nc1ccc(Cl)cc1Cl` (stereo not drawn) [CBK261509] was tested, and the “% of control remaining” value was 120.122%.
`CNC(=O)c1cn2cc(-c3cccs3)n(CC3CC3)c(=O)c2n1` [CBK306838] was tested, and the “% of control remaining” value was 176.329%.
With `COc1ccccc1-c1cnc(N)c(NC2CCOCC2)n1` [CBK063853] the “% of control remaining” value was 145.591%.
For `Cc1c(NC(=S)NC(=O)COc2ccc(Cl)cc2)cccc1C(=O)O` [CBK265070], the “% of control remaining” value was 100%.
`CCCCCC1/C(=N\O)CCC1CC(=O)OC` (stereo not drawn) [CBK019978] was tested, and the “% of control remaining” value was 139.248%.
For `O=C(NCCCN1CCOCC1)c1c(Cl)cccc1Cl` [CBK263631], the “% of control remaining” value was 115.624%.
`CC1=NN(c2nc(-c3ccc(Br)cc3)cs2)C(=O)C1/N=N/c1cccc(CO)c1` (stereo not drawn) [CBK262429] was tested, and the “% of control remaining” value was 100%.
For `O=[N+]([O-])c1cc(CN2CCCCC2)c2cccnc2c1O` [CBK265121], the “% of control remaining” value was 138.097%.
In the case of `COc1cc(C(=O)N/C(=C\c2ccc(O)cc2)C(=O)O)cc(OC)c1OC` [CBK262607], the “% of control remaining” value is reported as 112.959%.
For `O=C(CN(c1ccc(F)cc1)S(=O)(=O)c1ccccc1)Nc1ccc2c(c1)OCCO2` [CBK265215], the “% of control remaining” value was 125.886%.
`O=C(Nc1nccs1)c1ncn[nH]1` [CBK028821] was tested, and the “% of control remaining” value was 114.321%.
In the case of `Cc1cnc2[nH]c(C(C)C)c(CN3CCCOCC3)c2c1` [CBK284742], the “% of control remaining” value is reported as 124.145%.
`O=C(O)C1CCN(S(=O)(=O)c2ccc(F)cc2)CC1` [CBK100196] was tested, and the “% of control remaining” value was 82.6986%.
For `Cc1oc2ncn(Cc3ccccc3)c(=N)c2c1C` [CBK288160], the “% of control remaining” value was 117.167%.
For `O=C(Nc1cccc(Cl)c1)c1cccc(NC(=O)c2ccccc2C(=O)O)c1` [CBK287122], the “% of control remaining” value was 136.152%.
For `O=C(Nc1ccc(F)cc1)c1ccc(NS(=O)(=O)c2ccc(Br)cc2)cc1` [CBK050400], the “% of control remaining” value was 49.2858%.
With `COCc1cccc(-c2ncc(OCCN3CCCC3=O)nc2NC(C)=O)c1` [CBK145239] the “% of control remaining” value was 118.169%.
In the case of `CCC1(CC)CCN(C(=O)CCn2ccc3ccncc32)C1` [CBK285176], the “% of control remaining” value is reported as 118.809%.
With `Cn1ccnc1C1(O)CC2CCC(C1)N2C(=O)c1c(F)cccc1F` (stereo not drawn) [CBK284092] the “% of control remaining” value was 108.422%.
In the case of `CN1C(=O)c2ccccc2OCCCCC[C@H]2[C@@H]1CCCN2C(=O)c1ccccc1Cn1cncn1` [CBK292114], the “% of control remaining” value is reported as 70.9071%.
`Cc1csc(C(Cc2ccsc2)NCc2cccnc2)n1` (stereo not drawn) [CBK285020] was tested, and the “% of control remaining” value was 106.634%.
In the case of `COc1ccc2cc([C@@H](O)C[C@@H](C)O)c(Cl)nc2c1` [CBK022146], the “% of control remaining” value is reported as 136.267%.
In the case of `O=C(O)[C@H]1Nc2ccc(Br)cc2[C@H]2[C@H](O)[C@H](O)C[C@H]21` [CBK303242], the “% of control remaining” value is reported as 74.5089%.
For `CC(C)OC(=O)[C@@H]1CCN(C(=O)CCC2NC(=O)NC2=O)[C@@H]1c1ccc(F)cc1` (stereo partly drawn) [CBK285520], the “% of control remaining” value was 86.2752%.
In the case of `Cn1nccc1NS(=O)(=O)c1ccc(-c2cnco2)s1` [CBK062088], the “% of control remaining” value is reported as 63.5759%.
For `O=C(O)Cc1ccc(OCC(=O)NCc2ccc(Cl)cc2Cl)cc1` [CBK296628], the “% of control remaining” value was 84.028%.
`O=C(CCc1c[nH]c2ccccc12)Nc1ccccc1C(=O)O` [CBK287242] was tested, and the “% of control remaining” value was 112.604%.
In the case of `CNCC(=O)N1CCN(C(=O)c2ccc(Cl)cc2Cl)CC1` [CBK029576], the “% of control remaining” value is reported as 100%.
With `CC(C)Cn1c(=O)[nH]c2ncc(-c3ccc(O)cc3)nc21` [CBK065011] the “% of control remaining” value was 78.7063%.
In the case of `O=C(O)C1CCCN(C(=O)Cc2csc(COc3ccc(Cl)cc3)n2)C1` (stereo not drawn) [CBK304501], the “% of control remaining” value is reported as 159.664%.
For `O=S(=O)(Nc1nc(-c2ccccc2Cl)cs1)c1sc(Cl)cc1Br` [CBK200028], the “% of control remaining” value was 110.531%.
For `CN(C1CCCCC1)S(=O)(=O)NCCc1cn2ccccc2n1` [CBK305576], the “% of control remaining” value was 91.364%.
With `COc1ccnc(N2CCN(C(=O)c3cc(C)nn3C)CC2)n1` [CBK305967] the “% of control remaining” value was 126.515%.
For `COc1ccc(CCNc2ncnc3[nH]cnc23)cc1OC` [CBK134342], the “% of control remaining” value was 157.498%.
In the case of `Cc1cc(NC(=O)C2CCN(C(=O)c3c(F)cccc3F)CC2)no1` [CBK304359], the “% of control remaining” value is reported as 91.0455%.
With `CCOC(=O)c1cccc(-n2ncc(CN(C)C)n2)c1` [CBK112866] the “% of control remaining” value was 105.688%.
For `O=C(c1cnc2cc(C(F)(F)F)ccc2c1O)N1CCN(c2ccccn2)CC1` [CBK107431], the “% of control remaining” value was 68.8714%.
`COc1ccc(C(=O)N2CCC3(CCN(Cc4ccc(Cl)c(Cl)c4)C3)C2)cc1OC` (stereo not drawn) [CBK132150] was tested, and the “% of control remaining” value was 122.047%.
`O=C(Nc1cccc(-c2nc3ccccc3s2)c1)c1ccc(Cn2cnnn2)cc1` [CBK285823] was tested, and the “% of control remaining” value was 135.586%.
With `O=C(CN1C(=O)c2ccccc2S1(=O)=O)N(Cc1ccccc1)Cc1ccccc1` [CBK265982] the “% of control remaining” value was 100%.
In the case of `O=C(C1CCN(S(=O)(=O)c2ccc3ccccc3c2)CC1)N1CCC(Cc2ccccc2)CC1` [CBK269558], the “% of control remaining” value is reported as 149.222%.
With `CS(=O)(=O)N(CC(=O)Nc1ccc(S(=O)(=O)N2CCCC2)cc1)c1ccc2c(c1)OCO2` [CBK268995] the “% of control remaining” value was 118.603%.
In the case of `CN(CP(=O)(O)CCc1ccccc1)S(C)(=O)=O` [CBK263068], the “% of control remaining” value is reported as 99.8796%.
`CCCc1ccc(S(=O)(=O)Nc2nc(C)c(C(=O)O)s2)cc1` [CBK045555] was tested, and the “% of control remaining” value was 107.829%.
In the case of `O=C(CNS(=O)(=O)c1ccc(Oc2ccccc2)cc1)Nc1ccc(F)cc1` [CBK042229], the “% of control remaining” value is reported as 66.7498%.
In the case of `CCOc1ccccc1NC(C)CC(=O)O` (stereo not drawn) [CBK058826], the “% of control remaining” value is reported as 131.2%.
`CC(C)n1cnnc1CN1CCN(c2ccc(C#N)cc2)CC1` [CBK307714] was tested, and the “% of control remaining” value was 144.571%.
In the case of `O=C(Cc1c[nH]c2ccccc12)N1CCC2(CCCN(C(=O)c3cccnc3)C2)C1` (stereo not drawn) [CBK131604], the “% of control remaining” value is reported as 95.7536%.
In the case of `COC(=O)c1cn([C@H]2CO[C@H]3[C@@H]2OC[C@H]3O)nn1` [CBK289491], the “% of control remaining” value is reported as 132.395%.
With `Nc1ncnc2c1nc1n2[C@H]2C[C@@H](O)[C@H](O2)C1=O` [CBK201259] the “% of control remaining” value was 135.306%.
In the case of `CCCc1ccc(S(=O)(=O)N(c2ccccc2)C2CCNCC2)cc1` [CBK165121T], the “% of control remaining” value is reported as 156.461%.
With `Cc1c(CN2CCCC2(C)C(=O)NC2CCCC2)cnn1C` (stereo not drawn) [CBK281960] the “% of control remaining” value was 98.7587%.
`COc1ccc(CN2CCC(Oc3nccnc3OCCN3CCOCC3)CC2)cc1` [CBK082922T] was tested, and the “% of control remaining” value was 94.4369%.
With `O=C(O)c1ccc(CNCc2c(F)cccc2Cl)cc1` [CBK269496C] the “% of control remaining” value (Bulk GFP fluorescence) was 94.7855%.
In the case of `Fc1ccc(CCN2CCC(Oc3cncc(OCc4cccnc4)n3)C2)cc1` (stereo not drawn) [CBK084469], the “% of control remaining” value is reported as 92.8169%.
With `COCC(=O)NC1CCN(CC2(c3ccccc3F)CCCC2)CC1` [CBK284850] the “% of control remaining” value was 110.004%.
`COc1ccc(NC(=O)CSc2nnc(C3CC3)n2C)c(OC)c1` [CBK270303] was tested, and the “% of control remaining” value was 175.099%.
With `CC(Oc1cccc(Br)c1)c1nc(-c2ccc(-n3cccc3)cc2)no1` (stereo not drawn) [CBK293986] the “% of control remaining” value was 129.98%.
In the case of `CN(C)CCCNC(=S)Nc1ccc(Cl)cc1Cl` [CBK264183], the “% of control remaining” value is reported as 126.92%.
With `Cc1ncc(CN(CCN(C)C)Cc2cccs2)n1C` [CBK282993] the “% of control remaining” value was 126.8%.
`O=C(NCCNc1cnccn1)c1cc(Br)ccc1F` [CBK253480] was tested, and the “% of control remaining” value was 91.8652%.
With `NC1(C(F)(F)F)Oc2cc(Cl)c(Cl)cc2O1` [CBK021805] the “% of control remaining” value was 126.748%.
With `CC(C)c1ccc(-n2ncc3c(=O)[nH]cnc32)cc1` [CBK288096] the “% of control remaining” value was 111.059%.
